Experimental data taken from paper PMC12723162, “Alphaherpesvirus pUL21 homologs use non-canonical sequences to compete with cellular adaptors for protein phosphatase 1 binding” (The Journal of Biological Chemistry, 2025).
These are yes or no findings as the source states them, for the method shown. In cells and extracts the contact can be indirect. Some entries that bind do so weakly or less than the wild type. For some of these results: Tags and fused reporters may be left off the sequences shown.

Sequences of proteins named here, by UniProt entry; tags and fusion partners are left off.
UniProt F8RG07: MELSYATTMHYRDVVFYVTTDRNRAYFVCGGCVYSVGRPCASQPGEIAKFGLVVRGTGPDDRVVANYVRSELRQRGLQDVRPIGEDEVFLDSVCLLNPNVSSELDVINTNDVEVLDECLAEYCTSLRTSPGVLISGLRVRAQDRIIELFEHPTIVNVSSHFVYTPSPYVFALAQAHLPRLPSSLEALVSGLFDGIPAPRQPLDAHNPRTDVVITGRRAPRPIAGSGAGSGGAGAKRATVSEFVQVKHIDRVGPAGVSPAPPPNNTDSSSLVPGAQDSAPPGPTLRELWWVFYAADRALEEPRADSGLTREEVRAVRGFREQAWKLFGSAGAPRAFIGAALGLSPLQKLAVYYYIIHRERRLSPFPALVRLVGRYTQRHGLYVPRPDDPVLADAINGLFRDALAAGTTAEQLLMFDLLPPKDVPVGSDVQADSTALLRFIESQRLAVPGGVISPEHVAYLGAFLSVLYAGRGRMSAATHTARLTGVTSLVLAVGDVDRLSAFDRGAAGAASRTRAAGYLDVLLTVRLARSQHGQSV
UniProt P62136: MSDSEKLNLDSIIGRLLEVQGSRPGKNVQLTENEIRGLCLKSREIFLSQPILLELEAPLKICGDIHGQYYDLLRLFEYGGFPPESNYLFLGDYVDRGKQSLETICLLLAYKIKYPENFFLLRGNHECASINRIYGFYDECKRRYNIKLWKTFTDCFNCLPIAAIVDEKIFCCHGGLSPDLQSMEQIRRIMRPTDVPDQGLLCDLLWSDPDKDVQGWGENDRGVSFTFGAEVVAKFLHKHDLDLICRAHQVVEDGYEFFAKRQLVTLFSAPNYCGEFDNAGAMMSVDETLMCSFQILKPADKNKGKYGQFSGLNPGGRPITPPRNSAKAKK

Legend:
pUL21-GFP (HSV-1) [1] = target: pUL21-GFP (HSV-1) (UniProt F8RG07); test: co-IP; HEK 293T co-transfected with pUL21-GFP and WT or mutant Myc-PP1α; GFP affinity capture; anti-Myc immunoblot; bound:input ratio by densitometry
pORF38-GFP (VZV) = target: T1, pORF38-GFP (VZV) (UniProt P09289); test: co-IP; HEK 293T transfected with GFP-tagged bait, lysed 24 h post-transfection (10 mM Tris pH 7.5, 150 mM NaCl, 0.5 mM EDTA, 0.5% Igepal CA-630); GFP-Trap capture; immunoblot for endogenous PP1α and CERT
T1 sequence: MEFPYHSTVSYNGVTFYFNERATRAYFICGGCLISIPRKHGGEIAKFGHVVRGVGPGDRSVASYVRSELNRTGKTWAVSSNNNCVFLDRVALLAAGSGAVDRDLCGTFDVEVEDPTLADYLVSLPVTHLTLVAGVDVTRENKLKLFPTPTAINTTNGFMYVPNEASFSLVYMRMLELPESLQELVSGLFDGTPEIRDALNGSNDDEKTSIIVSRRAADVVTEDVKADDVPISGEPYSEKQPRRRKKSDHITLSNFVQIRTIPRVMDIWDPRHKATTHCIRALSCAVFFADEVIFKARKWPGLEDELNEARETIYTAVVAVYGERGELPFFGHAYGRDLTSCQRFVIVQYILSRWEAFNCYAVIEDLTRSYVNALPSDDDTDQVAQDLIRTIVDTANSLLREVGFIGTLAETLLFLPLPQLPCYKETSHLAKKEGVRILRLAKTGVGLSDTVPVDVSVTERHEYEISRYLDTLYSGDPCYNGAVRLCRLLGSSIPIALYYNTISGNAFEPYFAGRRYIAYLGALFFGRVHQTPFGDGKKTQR

pUL21-GFP (HSV-1) [2] = target: pUL21-GFP (HSV-1) (UniProt F8RG07); test: as above

Myc-PP1α (from UniProt P62136 1-330) (enzyme)
binding (pUL21-GFP (HSV-1) [1]): binds

endogenous PP1α (from UniProt P62136 1-330) (enzyme)
binding (pORF38-GFP (VZV)): binds
binding (pUL21-GFP (HSV-1) [2]): binds

B1: CERT (protein, UniProt Q9Y5P4 1-624)
chain: MSDNQSWNSSGSEEDPETESGPPVERCGVLSKWTNYIHGWQDRWVVLKNNALSYYKSEDETEYGCRGSICLSKAVITPHDFDECRFDISVNDSVWYLRAQDPDHRQQWIDAIEQHKTESGYGSESSLRRHGSMVSLVSGASGYSATSTSSFKKGHSLREKLAEMETFRDILCRQVDTLQKYFDACADAVSKDELQRDKVVEDDEDDFPTTRSDGDFLHSTNGNKEKLFPHVTPKGINGIDFKGEAITFKATTAGILATLSHCIELMVKREDSWQKRLDKETEKKRRTEEAYKNAMTELKKKSHFGGPDYEEGPNSLINEEEFFDAVEAALDRQDKIEEQSQSEKVRLHWPTSLPSGDAFSSVGTHRFVQKPYSRSSSMSSIDLVSASDDVHRFSSQVEEMVQNHMTYSLQDVGGDANWQLVVEEGEMKVYRREVEENGIVLDPLKATHAVKGVTGHEVCNYFWNVDVRNDWETTIENFHVVETLADNAIIIYQTHKRVWPASQRDVLYLSVIRKIPALTENDPETWIVCNFSVDHDSAPLNNRCVRAKINVAMICQTLVSPPEGNQEISRDNILCKITYVANVNPGGWAPASVLRAVAKREYPKFLKRFTSYVQEKTAGKPILF
binding (pUL21-GFP (HSV-1) [2]): binds
